# Test results published in US20220226341A1, “Pharmaceutical Composition for Alzheimer's Disease” (Kyoto University, priority 2019, published 2022).
# The chains behind the UniProt entries cited, without tags or fusion partners.
# UniProt P50750, whole entry: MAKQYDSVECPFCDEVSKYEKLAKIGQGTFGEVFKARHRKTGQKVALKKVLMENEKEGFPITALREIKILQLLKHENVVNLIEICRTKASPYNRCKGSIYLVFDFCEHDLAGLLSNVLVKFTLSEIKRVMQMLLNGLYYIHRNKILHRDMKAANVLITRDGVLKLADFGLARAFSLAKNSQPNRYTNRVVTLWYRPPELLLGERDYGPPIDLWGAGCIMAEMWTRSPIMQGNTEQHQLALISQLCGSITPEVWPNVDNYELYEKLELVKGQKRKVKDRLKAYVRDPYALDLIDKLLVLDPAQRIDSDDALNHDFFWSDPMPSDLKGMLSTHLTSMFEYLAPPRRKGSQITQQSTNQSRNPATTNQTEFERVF
# Some of these results come from one statement about several compounds together.
# Target: CDK9/CycT1 (Homo sapiens, UniProt P50750)
# Experiment: CDK9 inhibitory activity, Off-chip Mobility Shift Assay (MSA)
# Format: biochemical
# Conditions: conclusion in words
# Description: [Assay of CDK9 Inhibitory Activity]
# The tests for confirming CDK9 inhibitory activity were carried out by the following procedure according to Off-chip Mobility Shift Assay (MSA).
# A substrate/ATP/metal solution (4×) was prepared with use of a kit buffer (20 mM HEPES, 0.01% Triton X-100, 5 mM DTT, pH7.5). A kinase solution (2×) was prepared with use of an assay buffer.
# 2) The test substance solutions, the substrate/ATP/metal solution, and the kinase solution were mixed in wells of a polypropylene plate, and were caused to react at room temperature for one hour.
# 3) A termination buffer (QuickScout Screening Assist MSA; Cama Biosciences Inc.)
# was added thereto to stop the reaction.
# 4) Substrate peptides and phosphorylated peptides in the reaction solutions were separated and quantified in LabChip™ System (PerkinElmer Co., Ltd.).
# 5) Kinase reaction activities were evaluated based on a product ratio (P/(P+S)) calculated from a peak height of the substrate peptide (S) and a peak height of the phosphorylated peptide (P).
row,Structure (SMILES),CDK9 inhibitory activity
1,Fc1ccc(N2CCCCC2)c(NC(=S)c2ccncc2)c1 [Compound 1],had CDK9 inhibitory activity
2,O=C(Nc1cc(F)ccc1N1CCCCCC1)c1ccncc1 [Compound 4],had CDK9 inhibitory activity
3,COc1ccccc1-c1cc(Nc2cccc(CS(N)(=O)=O)c2)ncn1 [Compound 5],had CDK9 inhibitory activity
4,O=C(Nc1cc(F)ccc1N1CCCCC1)c1ccncc1 [Compound 2],had CDK9 inhibitory activity
5,Fc1ccc(N2CCCCCC2)c(NC(=S)c2ccncc2)c1 [Compound 3],had CDK9 inhibitory activity
